# Laboratory results as given in PubChem BioAssay AID540256 (National Center for Advancing Translational Sciences (NCATS), 2011).
# Hit rate of the full screen: of about 300,000 compounds, about 3,700 (1.2%) were called active. Inconclusive means that the source gave no clear call. Such entries were picked first, then a sample of the others. Calls come from the whole dose curve; tested in HEK293 cells. Where the call is inconclusive, the potency comes from a doubtful curve fit.
# Test: qHTS for Inhibitors of binding or entry into cells for Lassa Virus; note: nearly all actives have a fitted effect of over 50% in size
# Conditions: Lassa virus pseudotype entry inhibition, cell reporter; series mostly up to 37.9 µM
# Potency is the fitted concentration of half-maximal effect.
row,SMILES,Potency
1,CCC(=O)c1cc(F)c(N2CCN(C(=O)Cc3ccccc3)CC2)cc1C,"inconclusive: 14.1 µM [inhibitor, partial curve]"
2,O=C(C1CC1)N1CCc2cc(S(=O)(=O)N3CCOCC3)ccc21,"inconclusive: 5.62 µM [activator, single point]"
3,O=C(COC(=O)CSc1ccc(Cl)cc1)Nc1ccc2[nH]c(=O)[nH]c2c1,inactive
4,CC1(c2ccccc2)O[C@@H]2C[C@H]3[C@@H]4CCC5=CC(=O)C=C[C@]5(C)[C@@]4(F)[C@@H](O)C[C@]3(C)[C@]2(C(=O)CO)O1 (some centres not stated),"inconclusive: 5.62 µM [inhibitor, partial curve]"
5,COc1ccc(CN2CCN(Cc3cc4ccccc4o3)CC2CCO)cc1C (configuration not stated),"inconclusive: 10 µM [inhibitor, partial curve, poor fit]"
6,CCOc1ccccc1C(=O)Nc1ccc(S(=O)(=O)N2CCOCC2)cc1,"inconclusive: 31.6 µM [inhibitor, single point]"
7,COc1ccc(C(=O)N2CCCCC2CCN2CCCCC2)cc1 (configuration not stated),inactive
8,COc1ccc(Nc2oc(COc3ccccc3OC)nc2C#N)cc1,"inconclusive: 29.1 µM [inhibitor, single point]"
9,CCCCC(=O)Nc1nc(-c2ccc(S(=O)(=O)N3CCOCC3)cc2)cs1,"inconclusive: 22.4 µM [inhibitor, partial curve, poor fit]"
10,CC1CCCC(C)N1C(=O)CSc1nnc(COc2ccccc2)n1-c1ccccc1 (configuration not stated),"inconclusive: 20.6 µM [inhibitor, single point]"
11,C=CCc1c(C)nc2ccc(C(=O)OCC)cc2c1Cl,"inconclusive: 5.01 µM [inhibitor, partial curve, poor fit]"
12,Cc1ccc(N2C(=O)NC(=O)/C(=C/C=C/c3ccco3)C2=O)cc1,inactive
13,CCC(CC)C(=O)Nc1ccccc1C(=O)OCc1cc(=O)n2nc(C3CCCCC3)sc2n1,inactive
14,Brc1ccc(-c2cn3ccccc3n2)s1,"inconclusive: 7.94 µM [inhibitor, partial curve, poor fit]"
15,CC1=CC(=O)C=C(C)C1=NOC(=O)/C=C\c1ccccc1,inactive
16,COc1ccccc1C(=O)O/N=C(\N)c1ccccc1Cl,"inconclusive: 29.1 µM [inhibitor, single point]"
17,O=C(CCNC(=O)c1ccccc1Cl)Nc1cc(C(F)(F)F)ccc1Cl,"inconclusive: 5.62 µM [activator, single point]"
18,O=C(CSCc1ccc(Cl)cc1)Nc1ccc2c(c1)OCCO2,inactive
19,Cc1ccccc1CNC(=O)c1cc2cc(S(=O)(=O)N3CCCCC3)ccc2n1C,"inconclusive: 10 µM [inhibitor, partial curve, poor fit]"
20,COc1ccc(-n2c(-c3ccco3)nc3c(cnn3-c3ccccc3C)c2=O)cc1,"inconclusive: 11.2 µM [inhibitor, partial curve, poor fit]"
21,CCOc1ccc(NC(=O)C2C3C=CC4(O3)C2C(=O)N(Cc2cccnc2)C4C(=O)NC2CCCCC2)cc1 (configuration not stated),inactive

row,SMILES,Potency
1,CCN1CCN(c2ccc(S(=O)(=O)N3CCOCC3)cc2NC(=O)C(C)Oc2cccc(Cl)c2)CC1 (configuration not stated),"inconclusive: 14.1 µM [inhibitor, partial curve, poor fit]"
2,COc1ccc(-c2cc(C(=O)OCC(=O)N3CCCC3)c3ccccc3n2)cc1,"inconclusive: 35.5 µM [inhibitor, single point]"
3,CN(Cc1ccccc1)C(=O)c1ccc(NC(=O)c2ccccc2)cc1,"inconclusive: 17.8 µM [inhibitor, single point]"
4,CS(=O)(=O)c1ccc2nc(NC(=O)CN3CCOCC3)sc2c1,inactive
5,Cc1cc(N2CCN(c3cccc(C)c3C)CC2)n2nc(C)c(-c3ccc(Cl)cc3)c2n1,inactive
6,COc1ccc(CC(=O)N2CCN(c3cccc(Cl)c3)CC2)cc1OC,"inconclusive: 35.5 µM [inhibitor, single point]"
7,COc1ccc(NC(=S)Nc2ncccc2C)cc1OC,"inconclusive: 14.1 µM [activator, partial curve, poor fit]"
8,COc1ccc(C(=O)NCCn2cc(SCc3cc(C)ccc3C)c3ccccc32)cc1,"inconclusive: 35.5 µM [inhibitor, single point]"
9,COc1ccccc1NC(=O)c1ccc2oc(=O)c(S(=O)(=O)c3ccccc3)cc2c1,"inconclusive: 11.2 µM [inhibitor, partial curve]"
10,O=C(CCOc1ccccc1)Nc1ccnn1C1CCN(Cc2ccc(O)cc2)CC1,inactive
11,CCOc1ccccc1NC(=S)Nc1ncccc1C,"inconclusive: 10 µM [inhibitor, single point]"
12,Cc1cc(NS(=O)(=O)c2ccc(NS(=O)(=O)c3ccc(CC(C)C)cc3)cc2)nc(C)n1,inactive
13,Cc1cccc(C)c1OCc1cc(C(=O)N(Cc2nccn2C)C(C)C)no1,"inconclusive: 12.6 µM [inhibitor, partial curve, poor fit]"
14,O=C(Nc1nc2ccccc2[nH]1)c1ccc([N+](=O)[O-])cc1,inactive
15,COCCn1c(=NC(=O)c2ccccc2[N+](=O)[O-])sc2cc(S(C)(=O)=O)ccc21,"inconclusive: 1.12 µM [activator, full curve, poor fit]"
16,Cc1cc(NC(=O)CC2CCCC2)n(-c2nc3ccccc3[nH]2)n1,"inconclusive: 20 µM [inhibitor, partial curve, poor fit]"
17,Cc1ccc(-c2nc3ccccc3[nH]2)cn1,inactive
18,O=C(CSc1nnc(CCc2ccccc2)n1-c1ccc(Cl)cc1)NCc1ccccc1,"inconclusive: 35.5 µM [inhibitor, single point]"
19,COCCN1CCn2c(nc3cc(NC(=O)c4cccs4)ccc32)C1,"inconclusive: 3.26 µM [activator, partial curve, poor fit]"
20,O=C(NN1C(=O)C2C3C=CC(O3)C2C1=O)c1cccc(Br)c1 (configuration not stated),inactive
21,CCc1ccc(C2=NNC(=Nc3cccc(S(=O)(=O)N(C)C)c3)SC2)cc1,"inconclusive: 20.6 µM [inhibitor, single point]"

# No new results follow: an excerpt of the list.
row,SMILES,Potency
14,O=C(Nc1nc2ccccc2[nH]1)c1ccc([N+](=O)[O-])cc1,inactive
15,COCCn1c(=NC(=O)c2ccccc2[N+](=O)[O-])sc2cc(S(C)(=O)=O)ccc21,"inconclusive: 1.12 µM [activator, full curve, poor fit]"
